For at least one compound, name, drawing or mass did not settle the structure. Some entries repeat one wording, which the source may state once for all of them.
Test system: MYH11 promoter-driven luciferase activity
Experiment: High-throughput screening, MYH11-Nluc-2A-Tom reporter human ES cell line, luciferase assay
Type: cell-based
Conditions: small molecules added day 4-14; selected when normalized reads > average+3×STDEV
Protocol: FIGS. 1A-1C depict a schematic of high-throughput screening. […] The cells were passaged at day 4 and seeded on the 96-well plate for screening (2×10^6 cells/plate). After the reporter cell line was differentiated into mesoderm, small molecules were added to the cells from day 4 to day 14. FIG. 1B depicts the results of the screening in two batches. The luciferase assay results of individual small molecules were normalized to the average reads of all samples for each batch. The small molecules were selected for further analysis when the normalized reads were greater than “average+3×STDEV”. FIG. 1C depicts optimizing the concentration of the selected small molecules.
The cells were treated with 50 ng/ml FGF2 and 20 ng/ml BMP4 for another two days. The cells were passaged at day 4 and seeded on the 96-well plate for screening (2×10^6 cells/plate). The compounds were added from day 4-14. The Luciferase substrate (1000× dilution) (Nano-Glo Luciferase Assay system, Promega) was added to the medium for 15 min and luminescence was measured. An increase in luminescence indicates increased MYH11 expression, which is an indicator of the contractile smooth muscle cell phenotype. The Thomson custom stem cell Modulator 1, GSK-kinase inhibitor library, SellekChem Kinase inhibitor library, Analyticon NATx library, Prestwick Chemical Library, GlaxoSmithKline Protein Kinase Inhibitors, and part of Enamine Representative Diversity library were used for screening.
High-throughput screening directs contractile smooth muscle cell differentiation—The construction of the MYH11-NLuc-tdTomato human ES cell reporter line generated by CRISPR/Cas9 technology is described in FIGS. 6A-6H. The reporter cell line was differentiated into mesoderm in E8BAC medium (Zhang et al., 2017) for two days and treated with FGF2 and BMP4 to further mature mesoderm for another two days. The cells were then passaged into a 96-well plate and exposed to small molecules for 10 days using a customized robotic workstation (FIG. 1A). The workstation was designed through collaboration with TECAN, which enables us to perform the automatic high-throughput screening at specific time point and in long-term. The medium were changed every other day and the small molecules were added during the feeding. […] We then validated these hits and optimized their concentration.

SMILES	promotes MYH11+ SMC differentiation (increased MYH11 promoter-driven luciferase activity)
CN(C)CCOc1ccc(-c2nc(-c3ccncc3)c(-c3ccc4c(c3)CC/C4=N\O)[nH]2)cc1 [SB590885]	promotes MYH11^+ SMC differentiation
C=C[C@@]1(C)CC(=O)[C@]2(O)[C@@]3(C)[C@@H](O)CCC(C)(C)[C@@H]3[C@H](O)[C@H](OC(C)=O)[C@@]2(C)O1 [forskolin, Forskolin]	promotes MYH11^+ SMC differentiation
Nc1cc(N2CCCCC2)nc(N)[n+]1[O-] [minoxidil, Minoxidil]	promotes MYH11^+ SMC differentiation
COC(=O)C1=C(C)NC(C)=C(C(=O)OCC(C)C)C1c1ccccc1[N+](=O)[O-] (stereo not shown) [nisoldipine, Nisoldipine]	promotes MYH11^+ SMC differentiation

From US20190010461A1, “HUMAN PLURIPOTENT STEM CELL-BASED SCREENING FOR SMOOTH MUSCLE CELL DIFFERENTIATION AND DISEASE” (Wisconsin Alumni Research Foundation, priority 2017, published 2019)
